The reference is the same well before dosing, and untreated signal decays as well.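 Fibroblast labels denote human fibroblasts, mainly primary ones from uterus (C12385, HUF), lung (H6013), bone (Hs27A), adrenal (HADF) and skin (WS1), plus mammary HMF and breast cancer-associated Hs343T. Cancer cells are basal-like or mesenchymal-like triple-negative breast cancer lines. A hit is a response shift exceeding 3x replicate standard deviation. The tissue of the other fibroblasts is not given here.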
Test system: HCC1143
Test: relative JC-1 red fluorescence (viability) vs pre-drug, coculture with fibroblast (fraction); higher = more viable cancer cells
Protocol: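 JC-1 labelled TNBC cells cocultured 1:1 (1,500 cells each) with CellTrace Violet stained primary or stromal fibroblasts in 384-well plates in FluoroBrite medium, treated with one of 42 anticancer drugs at 0.1, 1, 10 or 100 uM. JC-1 red fluorescence (mitochondrial integrity in cancer cells only) was read by plate reader every 8 h for 72 h. Values are normalised to each well's pre-drug value. The stock of one drug was tenfold lower, so its dose labels may be too high.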

N#Cc1ccc(C(c2ccc(C#N)cc2)n2cncn2)cc1 [Letrozole]
relative JC-1 red fluorescence
Conditions | 8 h | 16 h | 24 h | 32 h | 40 h | 48 h | 56 h | 64 h | 72 h
0.1 µM, coculture fibroblast: C12385 | 0.82889 | 0.718 | 0.642 | 0.58 | 0.51 | 0.455 | 0.401 | 0.365 | 0.344
0.1 µM, coculture fibroblast: H6013 | 0.773 | 0.691 | 0.66 | 0.646 | 0.571 | 0.559 | 0.521 | 0.495 | 0.466
0.1 µM, coculture fibroblast: H6019 | 0.802 | 0.72 | 0.653 | 0.5798 | 0.5268 | 0.495 | 0.437 | 0.395 | 0.364
0.1 µM, coculture fibroblast: H6076 | 0.822 | 0.824 | 0.788 | 0.738 | 0.685 | 0.669 | 0.642 | 0.609 | 0.619
0.1 µM, coculture fibroblast: H6231 | 0.811 | 0.801 | 0.716 | 0.5903 | 0.598 | 0.558 | 0.52 | 0.472 | 0.449
0.1 µM, coculture fibroblast: HADF | 0.76 | 0.6706 | 0.6458 | 0.648 | 0.55 | 0.528 | 0.495 | 0.469 | 0.452
0.1 µM, coculture fibroblast: HCFa | 0.7607 | 0.671 | 0.6312 | 0.601 | 0.511 | 0.4832 | 0.427 | 0.387 | 0.357
0.1 µM, coculture fibroblast: HCPF | 0.819 | 0.786 | 0.721 | 0.63031 | 0.614 | 0.577 | 0.529 | 0.493 | 0.467
0.1 µM, coculture fibroblast: HHSteC | 0.832 | 0.795 | 0.759 | 0.725 | 0.65 | 0.629 | 0.581 | 0.552 | 0.497
0.1 µM, coculture fibroblast: HMF | 0.8089 | 0.789 | 0.705 | 0.637 | 0.6 | 0.563 | 0.521 | 0.495 | 0.465
0.1 µM, coculture fibroblast: HPFa | 0.882 | 0.781 | 0.75 | 0.657 | 0.6 | 0.562 | 0.496 | 0.439 | 0.393
0.1 µM, coculture fibroblast: HUF | 0.848 | 0.753 | 0.707 | 0.635 | 0.586 | 0.564 | 0.508 | 0.469 | 0.44
0.1 µM, coculture fibroblast: Hs5 | 0.856 | 0.89252 | 0.833 | 0.778 | 0.726 | 0.695 | 0.658 | 0.629 | 0.608
0.1 µM, coculture fibroblast: Hs27A | 0.724 | 0.614 | 0.577 | 0.58 | 0.455 | 0.433 | 0.382 | 0.347 | 0.316
0.1 µM, coculture fibroblast: Hs343T | 0.821 | 0.793 | 0.718 | 0.64 | 0.59 | 0.551 | 0.497 | 0.472 | 0.453
0.1 µM, coculture fibroblast: WS1 | 0.8065 | 0.7418 | 0.687 | 0.615 | 0.561 | 0.511 | 0.462 | 0.423 | 0.396
1 µM, coculture fibroblast: C12385 | 0.827 | 0.721 | 0.637 | 0.57 | 0.514 | 0.469 | 0.433 | 0.396 | 0.38
1 µM, coculture fibroblast: H6013 | 0.799 | 0.719 | 0.695 | 0.69 | 0.63 | 0.623 | 0.581 | 0.557 | 0.504
1 µM, coculture fibroblast: H6019 | 0.793 | 0.721 | 0.701 | 0.647 | 0.594 | 0.576 | 0.527 | 0.481 | 0.445
1 µM, coculture fibroblast: H6076 | 0.792 | 0.776 | 0.709 | 0.657 | 0.608 | 0.591 | 0.552 | 0.529 | 0.529
1 µM, coculture fibroblast: H6231 | 0.805 | 0.781 | 0.693 | 0.607 | 0.596 | 0.564 | 0.529 | 0.487 | 0.461
1 µM, coculture fibroblast: HADF | 0.791 | 0.74 | 0.715 | 0.731 | 0.659 | 0.644 | 0.615 | 0.594 | 0.577
1 µM, coculture fibroblast: HCFa | 0.82 | 0.719 | 0.72 | 0.71 | 0.629 | 0.597 | 0.554 | 0.522 | 0.487
1 µM, coculture fibroblast: HCPF | 0.827 | 0.7684 | 0.717 | 0.679 | 0.629 | 0.596 | 0.558 | 0.523 | 0.507
1 µM, coculture fibroblast: HHSteC | 0.845 | 0.777 | 0.761 | 0.742 | 0.678 | 0.648 | 0.609 | 0.575 | 0.519
1 µM, coculture fibroblast: HMF | 0.777 | 0.755 | 0.6856 | 0.6155 | 0.574 | 0.542 | 0.501 | 0.469 | 0.453
1 µM, coculture fibroblast: HPFa | 0.911 | 0.815 | 0.78 | 0.707 | 0.627 | 0.588 | 0.524 | 0.468 | 0.419
1 µM, coculture fibroblast: HUF | 0.859 | 0.783 | 0.729 | 0.666 | 0.608 | 0.583 | 0.528 | 0.489 | 0.468
1 µM, coculture fibroblast: Hs5 | 0.856 | 0.845 | 0.801 | 0.775 | 0.718 | 0.687 | 0.65 | 0.616 | 0.597
1 µM, coculture fibroblast: Hs27A | 0.7779 | 0.7236 | 0.717 | 0.735 | 0.629 | 0.626 | 0.578 | 0.548 | 0.499
1 µM, coculture fibroblast: Hs343T | 0.788 | 0.831 | 0.7298 | 0.627 | 0.601 | 0.56 | 0.496 | 0.462 | 0.437
1 µM, coculture fibroblast: WS1 | 0.8304 | 0.7371 | 0.701 | 0.634 | 0.566 | 0.529 | 0.483 | 0.443 | 0.42
10 µM, coculture fibroblast: C12385 | 0.8492 | 0.778 | 0.7031 | 0.643 | 0.591 | 0.55 | 0.518 | 0.482 | 0.463
10 µM, coculture fibroblast: H6013 | 0.744 | 0.66 | 0.61 | 0.581 | 0.504 | 0.493 | 0.457 | 0.437 | 0.404
10 µM, coculture fibroblast: H6019 | 0.843 | 0.781 | 0.754 | 0.715 | 0.689 | 0.664 | 0.617 | 0.58 | 0.551
10 µM, coculture fibroblast: H6076 | 0.814 | 0.815 | 0.776 | 0.731 | 0.691 | 0.667 | 0.631 | 0.6116 | 0.618
10 µM, coculture fibroblast: H6231 | 0.903 | 0.8534 | 0.825 | 0.799 | 0.778 | 0.759 | 0.725 | 0.684 | 0.671
10 µM, coculture fibroblast: HADF | 0.733 | 0.687 | 0.657 | 0.668 | 0.565 | 0.537 | 0.505 | 0.481 | 0.472
10 µM, coculture fibroblast: HCFa | 0.801 | 0.732 | 0.684 | 0.655 | 0.564 | 0.535 | 0.489 | 0.452 | 0.42
10 µM, coculture fibroblast: HCPF | 0.81 | 0.813 | 0.751 | 0.67 | 0.666 | 0.6338 | 0.5933 | 0.5518 | 0.532
10 µM, coculture fibroblast: HHSteC | 0.825 | 0.774 | 0.742 | 0.709 | 0.636 | 0.612 | 0.567 | 0.534 | 0.492
10 µM, coculture fibroblast: HMF | 0.786 | 0.806 | 0.731 | 0.648 | 0.625 | 0.595 | 0.56 | 0.529 | 0.496
10 µM, coculture fibroblast: HPFa | 0.871 | 0.788 | 0.753 | 0.66 | 0.606 | 0.577 | 0.5224 | 0.4712 | 0.4351
10 µM, coculture fibroblast: HUF | 0.905 | 0.833 | 0.799 | 0.729 | 0.689 | 0.66 | 0.617 | 0.589 | 0.571
10 µM, coculture fibroblast: Hs5 | 0.841 | 0.915 | 0.8384 | 0.76554 | 0.7218 | 0.679 | 0.641 | 0.604 | 0.5849
10 µM, coculture fibroblast: Hs27A | 0.721 | 0.6443 | 0.601 | 0.61 | 0.492 | 0.475 | 0.436 | 0.413 | 0.417
10 µM, coculture fibroblast: Hs343T | 0.8146 | 0.882 | 0.823 | 0.703 | 0.6997 | 0.648 | 0.596 | 0.563 | 0.522
10 µM, coculture fibroblast: WS1 | 0.831 | 0.754 | 0.706 | 0.626 | 0.576 | 0.535 | 0.494 | 0.453 | 0.416
100 µM, coculture fibroblast: C12385 | 0.8688 | 0.791 | 0.725 | 0.66 | 0.594 | 0.55 | 0.508 | 0.473 | 0.447
100 µM, coculture fibroblast: H6013 | 0.8 | 0.7206 | 0.731 | 0.745 | 0.696 | 0.691 | 0.665 | 0.651 | 0.618
100 µM, coculture fibroblast: H6019 | 0.826 | 0.7563 | 0.7206 | 0.6603 | 0.6304 | 0.6076 | 0.564 | 0.538 | 0.507
100 µM, coculture fibroblast: H6076 | 0.8267 | 0.8115 | 0.784 | 0.765 | 0.728 | 0.733 | 0.694 | 0.677 | 0.674
100 µM, coculture fibroblast: H6231 | 0.83 | 0.822 | 0.739 | 0.623 | 0.646 | 0.618 | 0.585 | 0.554 | 0.531
100 µM, coculture fibroblast: HADF | 0.716 | 0.641 | 0.622 | 0.637 | 0.535 | 0.504 | 0.471 | 0.445 | 0.456
100 µM, coculture fibroblast: HCFa | 0.774 | 0.677 | 0.64665 | 0.64 | 0.553 | 0.525 | 0.473 | 0.435 | 0.411
100 µM, coculture fibroblast: HCPF | 0.815 | 0.856 | 0.797 | 0.673 | 0.723 | 0.692 | 0.647 | 0.613 | 0.581
100 µM, coculture fibroblast: HHSteC | 0.846 | 0.739 | 0.718 | 0.695 | 0.62 | 0.588 | 0.548 | 0.518 | 0.47
100 µM, coculture fibroblast: HMF | 0.798 | 0.828 | 0.7558 | 0.653 | 0.657 | 0.628 | 0.582 | 0.541 | 0.503
100 µM, coculture fibroblast: HPFa | 0.938 | 0.866 | 0.833 | 0.759 | 0.694 | 0.663 | 0.606 | 0.559 | 0.508
100 µM, coculture fibroblast: HUF | 0.839 | 0.915 | 0.88 | 0.801 | 0.754 | 0.724 | 0.66 | 0.619 | 0.583
100 µM, coculture fibroblast: Hs5 | 0.845 | 0.928 | 0.8651 | 0.771 | 0.738 | 0.7 | 0.654 | 0.618 | 0.582
100 µM, coculture fibroblast: Hs27A | 0.751 | 0.683 | 0.632 | 0.657 | 0.535 | 0.515 | 0.47 | 0.443 | 0.4384
100 µM, coculture fibroblast: Hs343T | 0.8121 | 0.8159 | 0.744 | 0.666 | 0.6504 | 0.614 | 0.57 | 0.543 | 0.516
100 µM, coculture fibroblast: WS1 | 0.85165 | 0.778 | 0.739 | 0.681 | 0.636 | 0.594 | 0.554 | 0.514 | 0.491

Reference: the supplement of paper PMC6078165
